Measured values reported in PMC10780347.
Results are given in words; binding and its absence hold for the method and conditions named. Binding seen in cells or lysates may run through a third protein. Some entries that bind do so weakly or less than the wild type. Where a sequence is shown, tags or fusion partners need not be part of it.

Experiments:
phogrin–GST [1] = target: T1, phogrin–GST (UniProt Q63475); assay: pull-down; MIN6/phogrin–EGFP and MIN6/phogrin–GST co-cultured 1:1 for 48 h at low density (75%, subconfluent), 2.0 mg extract pulled down with glutathione sepharose, blot with anti-GFP
T1 sequence: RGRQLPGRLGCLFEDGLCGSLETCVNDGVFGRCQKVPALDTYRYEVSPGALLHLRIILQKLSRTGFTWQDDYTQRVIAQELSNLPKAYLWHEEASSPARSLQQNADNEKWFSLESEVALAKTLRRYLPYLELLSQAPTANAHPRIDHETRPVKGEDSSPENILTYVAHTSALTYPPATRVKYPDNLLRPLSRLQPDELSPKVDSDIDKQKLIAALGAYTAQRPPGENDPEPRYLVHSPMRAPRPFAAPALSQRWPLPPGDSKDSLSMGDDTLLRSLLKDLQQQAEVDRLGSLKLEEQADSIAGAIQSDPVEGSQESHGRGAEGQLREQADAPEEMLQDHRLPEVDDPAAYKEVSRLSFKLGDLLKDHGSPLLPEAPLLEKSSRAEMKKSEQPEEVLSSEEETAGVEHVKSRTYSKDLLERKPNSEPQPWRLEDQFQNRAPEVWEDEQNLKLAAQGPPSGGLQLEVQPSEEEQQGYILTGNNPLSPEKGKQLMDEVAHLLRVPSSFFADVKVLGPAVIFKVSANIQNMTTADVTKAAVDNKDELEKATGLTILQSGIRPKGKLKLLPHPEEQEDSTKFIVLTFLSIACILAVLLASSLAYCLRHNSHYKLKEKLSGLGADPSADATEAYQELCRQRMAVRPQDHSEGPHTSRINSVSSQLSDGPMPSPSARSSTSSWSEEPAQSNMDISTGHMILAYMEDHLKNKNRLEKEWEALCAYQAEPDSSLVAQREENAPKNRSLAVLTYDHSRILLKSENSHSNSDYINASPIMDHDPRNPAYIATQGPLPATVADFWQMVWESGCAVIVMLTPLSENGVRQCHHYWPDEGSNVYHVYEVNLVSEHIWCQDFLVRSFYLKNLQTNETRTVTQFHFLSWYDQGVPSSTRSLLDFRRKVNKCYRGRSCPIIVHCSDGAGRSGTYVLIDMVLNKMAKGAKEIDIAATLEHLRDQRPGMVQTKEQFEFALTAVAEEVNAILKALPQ

phogrin–GST [2] = target: T1, phogrin–GST; assay: pull-down; MIN6/phogrin–EGFP and MIN6/phogrin–GST co-cultured 1:1 for 48 h at high density (100%, confluent), 2.0 mg extract pulled down with glutathione sepharose, blot with anti-GFP
phogrin–GST [3] = target: T1, phogrin–GST; assay: condition: only extracts of separately cultured cells mixed after lysis; pull-down; lysate mix: extracts (2.0 mg) of separately cultured MIN6/phogrin–EGFP and MIN6/phogrin–GST cells mixed, pulled down with glutathione sepharose, blot with anti-GFP

binding (phogrin–GST [1]): binds weakly
binding (phogrin–GST [2]): binds
binding (phogrin–GST [3]): no binding
B1: phogrin–EGFP (protein, UniProt Q63475 28-1004)
chain: T1 sequence
